Experimental data as given in PubChem BioAssay AID504834 (National Center for Advancing Translational Sciences (NCATS), 2011).
Out of some 320,000 compounds screened, about 22,000 (6.9%) were called active. Inconclusive results, whose numbers are uncertain, are shown with a selection of clear calls. The call rests on the fitted dose curve; in most records, active means well fitted inhibition curve with a large enough effect; inconclusive means small, poorly fitted or top-dose-only effect, or another doubt; inactive means no such curve, though single readings can be large or run the other way. Potencies beside an inconclusive call are fits to weak or partial responses and may not hold up.

experiment: Primary qHTS for delayed death inhibitors of the malarial parasite plastid, 96 hour incubation; conditions: P. falciparum luciferase reporter growth; series mostly up to 28.7 µM; activity change, negative = inhibition: at the top concentration
Method in brief: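 Two parasite generations (96 h, 37 C, 5% CO2) of compound exposure in infected erythrocytes (0.05% parasitemia, 2% hematocrit). Luciferase-reporter P. falciparum; decreased luminescence indicates inhibited growth, aimed at apicoplast-acting delayed death.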
On the % scale 0 is the no-effect control and ±100 the full control effect; potency means the concentration at half of the fitted maximal effect.

| SMILES | activity change, negative = inhibition | Potency |
| --- | --- | --- |
| CCN(CCNC(=O)C1CCN(c2nnc(-n3cccc3)s2)CC1)c1ccccc1 | inactive: 4.95% | – |
| O=C(Nc1ccncc1)c1ccc(-c2ccccc2)cc1 | – | inconclusive: 18.5 µM [inhibitor, single point] |
| CCOC(=O)c1sc2nc(C)nc(N3CCN(c4ncccn4)CC3)c2c1C | inactive: -39.9% | – |
| Cc1ccc(S(=O)(=O)N2CCC(C(=O)Nc3nnc(C45CC6CC(CC(C6)C4)C5)s3)CC2)cc1 | – | inconclusive: 7.38 µM [inhibitor, single point] |
| COc1cccc(CN(C(=O)Cn2nnc(-c3ccccc3F)n2)C(C(=O)NC(C)(C)C)c2ccncc2)c1 (stereo not drawn) | inactive: 26.9% | – |
| CCOc1ccccc1C(=O)Oc1ccc2ccc(=O)oc2c1 | – | inconclusive: 11.7 µM [inhibitor, single point] |
| CCOc1cc(C)c(S(=O)(=O)N2CCCCC2)cc1C | – | inconclusive: 13.1 µM [inhibitor, single point] |
| COc1ccccc1-c1cc(C(F)(F)F)nc(S(=O)(=O)CCCC(=O)N2CCOCC2)n1 | inactive: -2.04% [at 5.75 µM] | – |
| COc1ccc(OC)c(N(CC(=O)NCc2ccccc2)S(=O)(=O)c2ccc(OC)c(OC)c2)c1 | inactive: -14.8% | – |
| Cc1c(Cl)cccc1NC(=O)C1CCN(S(C)(=O)=O)CC1 | – | inconclusive: 18.5 µM [inhibitor, single point] |
| COc1ccc(N2C(=O)CC(N3CCN(c4nc5ccccc5s4)CC3)C2=O)cc1 (stereo not drawn) | – | active: 4.65 µM |
| Cc1ccc(C)c(OCc2cc(C(=O)N3CCN(c4cnccn4)CC3)no2)c1 | inactive: -41.1% | – |
| O=C(Nc1ccccc1F)NC1CCCc2ccccc21 (stereo not drawn) | – | inconclusive: 10.4 µM [inhibitor, partial curve, poor fit] |
| COc1ccc(-c2coc3cc4oc(=O)cc(-c5ccccc5)c4cc23)cc1F | – | inconclusive: 11.7 µM [inhibitor, single point] |
| CC1(C)Cc2cccc(OCC(=O)NCc3ccccc3F)c2O1 | – | inconclusive: 20.8 µM [inhibitor, single point] |
| CCc1ccc(CN(C)C(=O)C2CCC(=O)N(Cc3cccc(OC)c3)C2)nc1 (stereo not drawn) | – | inconclusive: 16.5 µM [inhibitor, partial curve, poor fit] |
| CCS(=O)(=O)N1CCC(C(=O)NCc2cccnc2)CC1 | inactive: 50.1% | – |
| CC(C)CNC(=S)Nc1ccccc1F | – | inconclusive: 11.7 µM [inhibitor, single point] |
| CCOC(=O)CCNC(=O)N1CCCC(N(C)CCc2ccc(OC)c(OC)c2)C1 (stereo not drawn) | – | inconclusive: 1.47 µM [inhibitor, partial curve] |
| O=C(Cn1c(=O)oc2cc(S(=O)(=O)N3CCCCC3)ccc21)N1CCc2ccccc2C1 | – | inconclusive: 18.5 µM [inhibitor, single point] |
| CN(CC(=O)Nc1ccccc1Cl)C(=O)Cn1cc(C(F)(F)F)ccc1=O | inactive: 39.7% | – |

| SMILES | activity change, negative = inhibition | Potency |
| --- | --- | --- |
| S=C(NC1CCCCC1)N1CCOCCOCCN(C(=S)NC2CCCCC2)CCOCC1 | – | active: 4.65 µM |
| O=C(NC(=S)Nc1ccccn1)c1cncc(Br)c1 | inactive: -7.36% | – |
| Cc1nn(Cc2ccc(F)cc2)c(C)c1NC(=O)c1noc2c1CCCCC2 | – | inconclusive: 16.5 µM [inhibitor, partial curve, poor fit] |
| Cc1noc(NS(=O)(=O)c2ccc(NC(=O)/C=C/c3ccc(Br)cc3)cc2)c1C | – | inconclusive: 18.5 µM [inhibitor, single point] |
| O=C(NCCc1cccs1)C1CC(c2cccc([N+](=O)[O-])c2)=NO1 (stereo not drawn) | – | inconclusive: 0.233 µM [inhibitor, partial curve, poor fit] |
| COc1ccc(NC(=O)NN2CCN(C)CC2)c(OC)c1 | – | inconclusive: 0.329 µM [inhibitor, full curve, poor fit] |
| O=C(NC1CC1)C1CCN(S(=O)(=O)c2cc(Cl)ccc2Cl)CC1 | – | active: 0.0828 µM |
| COc1ccc2c(c1)N(C)/C(=C1/SC(=NCc3ccccc3)N(c3ccccc3)C1=O)S2 | – | inconclusive: 20.8 µM [inhibitor, partial curve, poor fit] |
| COc1ccc(/C=N/NC(N)=S)cc1OC(=O)c1ccccc1 | inactive: 2.72% | – |
| COc1ccccc1CN1CC(C(=O)NCCn2ccc(C)n2)CCC1=O (stereo not drawn) | – | inconclusive: 3.7 µM [inhibitor, full curve] |
| C/C(=N/NC(=O)c1ccccc1)C1=C(O)CC(C)(C)CC1=O | – | inconclusive: 0.415 µM [inhibitor, full curve, poor fit] |
| CCOC(=O)c1cc2sc(C)cc2n1CCCN1C(=O)c2ccccc2C1=O | – | inconclusive: 0.0738 µM [inhibitor, full curve, poor fit] |
| NC(=O)COC(=O)c1cc(S(=O)(=O)N2CCOCC2)ccc1N1CCCCC1 | – | inconclusive: 16.5 µM [inhibitor, single point] |
| CC(C)C(C)NC(=O)COC(=O)/C=C/c1ccc(S(=O)(=O)N2CCc3ccccc32)cc1 (stereo not drawn) | – | inconclusive: 2.62 µM [inhibitor, single point] |
| Cn1c2ccccc2c(=O)c2c(=O)n(C3CCCCC3)c(-c3ccco3)nc21 | – | active: 4.15 µM |
| Cc1ccc2c(cnn2C(=O)CCCC(=O)NC(C)c2ccccc2)c1 (stereo not drawn) | – | inconclusive: 16.5 µM [inhibitor, single point] |
| O=C(O)c1cc2[nH]c3c(c2cc1Cl)CCCC3 | – | inconclusive: 18.5 µM [inhibitor, single point] |
| CCn1c(SCC(=O)Nc2ccc(OCc3ccccc3)cc2)nnc1-c1ccco1 | – | inconclusive: 13.1 µM [inhibitor, single point] |
| Cn1c(=O)c2c(SCC(=O)NCC3CCCO3)nc(-c3cccs3)nc2n(C)c1=O (stereo not drawn) | – | inconclusive: 4.15 µM [inhibitor, partial curve, poor fit] |
| NNC(=O)CSc1nnc(-c2ccccc2)n1-c1ccccc1 | – | inconclusive: 10.4 µM [inhibitor, partial curve, poor fit] |
| O=S(=O)(O)c1ccc(N=Nc2ccccc2)cc1 | inactive: -11.3% | – |

Molecules above containing fluorine, in the order listed:

| SMILES | activity change, negative = inhibition | Potency |
| --- | --- | --- |
| COc1cccc(CN(C(=O)Cn2nnc(-c3ccccc3F)n2)C(C(=O)NC(C)(C)C)c2ccncc2)c1 (stereo not drawn) | inactive: 26.9% | – |
| COc1ccccc1-c1cc(C(F)(F)F)nc(S(=O)(=O)CCCC(=O)N2CCOCC2)n1 | inactive: -2.04% [at 5.75 µM] | – |
| O=C(Nc1ccccc1F)NC1CCCc2ccccc21 (stereo not drawn) | – | inconclusive: 10.4 µM [inhibitor, partial curve, poor fit] |
| COc1ccc(-c2coc3cc4oc(=O)cc(-c5ccccc5)c4cc23)cc1F | – | inconclusive: 11.7 µM [inhibitor, single point] |
| CC1(C)Cc2cccc(OCC(=O)NCc3ccccc3F)c2O1 | – | inconclusive: 20.8 µM [inhibitor, single point] |
| CC(C)CNC(=S)Nc1ccccc1F | – | inconclusive: 11.7 µM [inhibitor, single point] |
| CN(CC(=O)Nc1ccccc1Cl)C(=O)Cn1cc(C(F)(F)F)ccc1=O | inactive: 39.7% | – |
| Cc1nn(Cc2ccc(F)cc2)c(C)c1NC(=O)c1noc2c1CCCCC2 | – | inconclusive: 16.5 µM [inhibitor, partial curve, poor fit] |
